Assay [1] deals with ReNCell VM. Put plainly: neuronal differentiation score (DCX+ cell fraction vs untreated, manual image score) (score (-3 to 3)); higher = more neuronal differentiation. As to conditions: 2 uM, 2 weeks.
Assay [2] has as its system ReNCell VM. Put plainly: dopaminergic neuron differentiation score (TH+ cell fraction vs untreated, manual image score) (score (0 to 3)); higher = more TH+ dopaminergic neuron differentiation. The conditions noted are these: 2 uM, 4 weeks, BDNF 10 ng/ml + GDNF 10 ng/ml.

Where a name gives a salt, the structure may show the parent alone. This is one part of the list. This data set is noisy: repeats of one test often differ as much as different tests do.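 ReNCell VM, a human fetal ventral-midbrain neural progenitor line, was differentiated without mitogens. Blinded raters scored images stained for doublecortin (early neurons) or tyrosine hydroxylase (dopaminergic neurons) against untreated wells (0 = no change). Scores were averaged across repeats and both raters, and compounds averaging 2 or more were selected as hits for retesting.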

In the case of `S=C=NCc1ccccc1`, the neuronal differentiation score in the assay on ReNCell VM [1] (library: Spectrum) is inactive: 0. Moreover, in the assay with ReNCell VM [2] (library: Spectrum), the “dopaminergic neuron differentiation score” value is inactive: 0.
For `Cc1cc2c(C(C)C)c(O)c(O)c(C=O)c2c(O)c1-c1c(C)cc2c(C(C)C)c(O)c(O)c(C=O)c2c1O`, the neuronal differentiation score in the assay on ReNCell VM [1] (library: Spectrum) was inactive: 0. Besides, the “dopaminergic neuron differentiation score” value in the assay on ReNCell VM [2] (library: Spectrum) was inactive: 0.
Regarding `Cc1cccc(C)c1NC1=NCCCS1`, the neuronal differentiation score with ReNCell VM [1] (library: Spectrum) is inactive: 0. In the assay on ReNCell VM [2] (library: Spectrum), the “dopaminergic neuron differentiation score” value was inactive: 0.
Turning to `Cc1cc(SCc2sc(-c3ccc(C(F)(F)F)c(F)c3)nc2C)ccc1OCC(=O)O`, the neuronal differentiation score with ReNCell VM [1] (library: Tocriscreen) was inactive: 0. In the assay on ReNCell VM [2] (library: Tocriscreen), the “dopaminergic neuron differentiation score” value is inactive: 0.
As to `CCCN1CCc2cc(O)cc3c2[C@H]1Cc1ccc(O)c(O)c1-3` [R(-)-2,10,11-Trihydroxy-N-propylnoraporphine hydrobromide], the neuronal differentiation score in the assay with ReNCell VM [1] (library: LOPAC) is inactive: 0. In addition, in the assay with ReNCell VM [2] (library: LOPAC), the “dopaminergic neuron differentiation score” value was inactive: 0.
On to `Cc1ccc2c(c1)C1(CCN(CCc3nc(-c4ccccc4)oc3C)CC1)OC(=O)N2`, for which the neuronal differentiation score in the assay with ReNCell VM [1] (library: Tocriscreen) was inactive: 0. For the same molecule, the “dopaminergic neuron differentiation score” value in the assay with ReNCell VM [2] (library: Tocriscreen) was inactive: 0.
Consider `CC(CCc1ccccc1)NC(C)C(O)c1ccc(O)cc1` (centres undefined), for which, in the assay with ReNCell VM [1] (library: Spectrum), the neuronal differentiation score was inactive: 0. Moreover, the “dopaminergic neuron differentiation score” value in the assay with ReNCell VM [2] (library: Spectrum) was inactive: 0.
Regarding `CCN(C(C)=O)c1cccc(-c2ccnc3c(C#N)cnn23)c1` [Zaleplon], the neuronal differentiation score in the assay with ReNCell VM [1] (library: Prestwick) is inactive: 0. Moreover, the “dopaminergic neuron differentiation score” value in the assay with ReNCell VM [2] (library: Prestwick) is inactive: 0.
Regarding `COC1=CC=C2[C@H]3Cc4ccc(OC)c5c4[C@@]2(CCN3C)[C@H]1O5` [thebaine], the neuronal differentiation score in the assay with ReNCell VM [1] (library: Natural) was inactive: 0. Also, the “dopaminergic neuron differentiation score” value with ReNCell VM [2] (library: Natural) was inactive: 0.
For the molecule `C[C@H]1CC[C@]2(NC1)O[C@H]1C[C@H]3[C@@H]4CC[C@H]5C[C@@H](O)CC[C@]5(C)[C@H]4CC[C@]3(C)[C@H]1[C@@H]2C`, in the assay with ReNCell VM [1] (library: Spectrum), the neuronal differentiation score was inactive: 0. Further, the “dopaminergic neuron differentiation score” value in the assay with ReNCell VM [2] (library: Spectrum) was inactive: 0.
Turning to `Cc1nccc2c1[nH]c1cc(O)ccc12`, the neuronal differentiation score with ReNCell VM [1] (library: Spectrum) is inactive: 0. For the same molecule, the “dopaminergic neuron differentiation score” value in the assay with ReNCell VM [2] (library: Spectrum) was inactive: 0.
With `C[C@H]1O[C@@H](O[C@H]2[C@@H](O)C[C@H](O[C@H]3[C@@H](O)C[C@H](O[C@H]4CC[C@@]5(C)[C@H](CC[C@@H]6[C@@H]5CC[C@]5(C)[C@@H](C7=CC(=O)OC7)[C@@H](O)C[C@]65O)C4)O[C@@H]3C)O[C@@H]2C)C[C@H](O)[C@@H]1O` [Gitoxin], the neuronal differentiation score with ReNCell VM [1] (library: Phytochemical) is inactive: 0. The “dopaminergic neuron differentiation score” value in the assay on ReNCell VM [2] (library: Phytochemical) was inactive: 0.
As to `CN1CCc2cc3c(cc2[C@H]1[C@@H]1OC(=O)c2c1ccc1c2OCO1)OCO3` [Bicuculline (+)], the neuronal differentiation score in the assay with ReNCell VM [1] (library: Phytochemical) was inactive: 0. The “dopaminergic neuron differentiation score” value with ReNCell VM [2] (library: Phytochemical) is inactive: 0.
As to `CC(=O)O[C@H]1C[C@@H]2CC[C@@H]3[C@H](CC[C@@]4(C)[C@H]3C[C@H]([N+]3(C)CCCCC3)[C@@H]4OC(C)=O)[C@@]2(C)C[C@@H]1[N+]1(C)CCCCC1`, the neuronal differentiation score in the assay with ReNCell VM [1] (library: Spectrum) was inactive: 0. The “dopaminergic neuron differentiation score” value in the assay with ReNCell VM [2] (library: Spectrum) is inactive: 0.
Turning to `CC1=CC(=O)c2c(O)cccc2C1=O`, in the assay on ReNCell VM [1] (library: Spectrum), the neuronal differentiation score is inactive: 0. Further, in the assay with ReNCell VM [2] (library: Spectrum), the “dopaminergic neuron differentiation score” value is inactive: 0.
Take `Clc1cccc(SC2CCNCC2)n1` [Anpirtoline hydrochloride]: the neuronal differentiation score in the assay on ReNCell VM [1] (library: Tocriscreen) was inactive: 0. Besides, the “dopaminergic neuron differentiation score” value in the assay with ReNCell VM [2] (library: Tocriscreen) was inactive: 1.
As to `CCNC1(c2cccs2)CCCCC1=O` (centres undefined), the neuronal differentiation score in the assay with ReNCell VM [1] (library: Spectrum) was inactive: 0. For the same molecule, the “dopaminergic neuron differentiation score” value with ReNCell VM [2] (library: Spectrum) was inactive: 0.
For the molecule `CC(O)(CS(=O)(=O)c1ccc(F)cc1)C(=O)Nc1ccc(C#N)c(C(F)(F)F)c1` (centres undefined), in the assay on ReNCell VM [1] (library: Spectrum), the neuronal differentiation score is inactive: 0. Also, the “dopaminergic neuron differentiation score” value with ReNCell VM [2] (library: Spectrum) was inactive: 0.
With `CC(C)=CCC[C@]1(C)C=Cc2c(O)c3c(c(CC=C(C)C)c2O1)O[C@]12C(=C[C@@H]4C[C@H]1C(C)(C)O[C@@]2(C/C=C(/C)C(=O)O)C4=O)C3=O`, the neuronal differentiation score in the assay with ReNCell VM [1] (library: Spectrum) is inactive: 0. In the assay with ReNCell VM [2] (library: Spectrum), the “dopaminergic neuron differentiation score” value is inactive: 0.
Regarding `C[C@H](N)[C@H](O)c1ccc(O)c(O)c1`, in the assay on ReNCell VM [1] (library: Spectrum), the neuronal differentiation score was inactive: 1. Also, the “dopaminergic neuron differentiation score” value in the assay on ReNCell VM [2] (library: Spectrum) is inactive: 0.
For `Cc1ncc(CNC(=O)N(CCCl)N=O)c(N)n1` [Nimustine hydrochloride], in the assay on ReNCell VM [1] (library: LOPAC), the neuronal differentiation score was inactive: 1. Besides, in the assay with ReNCell VM [2] (library: LOPAC), the “dopaminergic neuron differentiation score” value is inactive: 0.
Take `O=C1Nc2ccccc2C2(CCN(CCc3ccc(C(F)(F)F)cc3)CC2)O1`: in the assay on ReNCell VM [1] (library: Tocriscreen), the neuronal differentiation score is inactive: 0. Further, in the assay with ReNCell VM [2] (library: Tocriscreen), the “dopaminergic neuron differentiation score” value is inactive: 0.
Turning to `CC(=O)Oc1ccc(/C=C/c2cc(OC(C)=O)cc(OC(C)=O)c2)cc1`, the neuronal differentiation score with ReNCell VM [1] (library: Spectrum) was inactive: 0. Also, the “dopaminergic neuron differentiation score” value with ReNCell VM [2] (library: Spectrum) is inactive: 0.
Regarding `CC[C@@H](C)C(=O)O[C@H]1[C@H](O)[C@H]2[C@@H](CN3C[C@@H](C)CC[C@H]3[C@@]2(C)O)[C@@H]2C[C@]34O[C@]5(O)[C@@H](OC(=O)[C@@](C)(O)CC)CC[C@@]3(C)[C@@H]5[C@@H](OC(C)=O)[C@@H](OC(C)=O)[C@H]4[C@@]21O` [Protoveratrine A], the neuronal differentiation score in the assay on ReNCell VM [1] (library: Phytochemical) was inactive: 0. The “dopaminergic neuron differentiation score” value in the assay with ReNCell VM [2] (library: Phytochemical) was inactive: 0.
For `c1ccc2c(N3CCNCC3)cccc2c1` [1-(1-Naphthyl)piperazine hydrochloride], the neuronal differentiation score in the assay with ReNCell VM [1] (library: LOPAC) is inactive: 0. Moreover, in the assay on ReNCell VM [2] (library: LOPAC), the “dopaminergic neuron differentiation score” value is inactive: 0.
Turning to `C=C[C@H]1CN2CC[C@H]1C[C@@H]2[C@@H](O)c1ccnc2ccccc12` [Cinchonine], the neuronal differentiation score with ReNCell VM [1] (library: Phytochemical) was inactive: 0. Moreover, in the assay with ReNCell VM [2] (library: Phytochemical), the “dopaminergic neuron differentiation score” value is inactive: 0.
Consider `CC1(C)C2CC(=O)[C@]3(C)C(CC[C@@]4(C)[C@H](c5ccoc5)OC(=O)[C@H]5O[C@]543)[C@@]2(C)C(=O)C[C@H]1O` (some centres undefined), for which the neuronal differentiation score with ReNCell VM [1] (library: Spectrum) was inactive: 0. Besides, in the assay on ReNCell VM [2] (library: Spectrum), the “dopaminergic neuron differentiation score” value was inactive: 0.

For the origin of these results see the supplement of paper PMC4635364.
